Test results reported in PMC9942304, “Identification of RimR2 as a positive pathway-specific regulator of rimocidin biosynthesis in Streptomyces rimosus M527”.
For at least one entry, the source does not settle the construct or the ends of the probe. A negative result means that nothing was seen under these conditions. At least one verdict was read from the data and is not stated in words by the source. Tags and fusion partners may be left off the protein sequences shown.

Biological target: T1, RimR2 (Streptomyces rimosus M527) (UniProt A0ABY3YSD1)
T1 sequence (looked up, limits assumed): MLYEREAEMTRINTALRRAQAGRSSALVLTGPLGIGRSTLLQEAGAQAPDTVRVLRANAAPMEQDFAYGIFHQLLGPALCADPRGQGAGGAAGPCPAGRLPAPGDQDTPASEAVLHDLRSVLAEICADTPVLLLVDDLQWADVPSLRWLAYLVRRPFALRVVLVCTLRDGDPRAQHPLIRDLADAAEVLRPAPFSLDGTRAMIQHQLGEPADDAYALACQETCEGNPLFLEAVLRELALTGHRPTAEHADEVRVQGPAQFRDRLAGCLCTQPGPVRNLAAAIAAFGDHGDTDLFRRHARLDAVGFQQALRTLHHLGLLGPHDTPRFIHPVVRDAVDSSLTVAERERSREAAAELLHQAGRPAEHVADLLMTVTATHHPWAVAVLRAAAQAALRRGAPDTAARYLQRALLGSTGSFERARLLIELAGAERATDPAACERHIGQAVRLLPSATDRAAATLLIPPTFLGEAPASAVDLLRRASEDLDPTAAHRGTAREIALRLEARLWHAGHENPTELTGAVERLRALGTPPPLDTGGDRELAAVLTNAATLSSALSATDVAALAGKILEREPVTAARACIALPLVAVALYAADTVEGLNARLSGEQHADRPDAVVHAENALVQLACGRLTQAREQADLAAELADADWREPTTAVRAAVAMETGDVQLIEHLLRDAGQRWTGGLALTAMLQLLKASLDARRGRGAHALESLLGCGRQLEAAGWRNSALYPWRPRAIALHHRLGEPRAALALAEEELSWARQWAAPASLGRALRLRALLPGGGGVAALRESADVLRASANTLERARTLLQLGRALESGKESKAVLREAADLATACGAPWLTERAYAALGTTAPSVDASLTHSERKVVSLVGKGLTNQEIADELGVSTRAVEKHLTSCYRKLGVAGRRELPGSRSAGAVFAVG
Assay: EMSA
Settings: LightShift Chemiluminescent EMSA Kit (Thermo); 0.04 pmol/ul biotin probe, 10 ug RimR2; pH and temperature not stated; recombinant protein; label: biotin (5' in Fig. 5 legend, 3' in Methods)

Sequence	binding result
CCTCCCGCTCCGCCCGCGGCCATGTGGCCTTCGGCTACGGCGTACACCAG (double strand) [rimH promoter probe]	no binding
CGCCGCGAGGAACTGCGGGAATTCCTGGCCGGGGAGTCCATCGAGACCCG (double strand) [rimG promoter probe]	no binding
GATCCTCGGACACCCGGCCCTGGCCCGGGCGTAACACCGCACGCACATCT (double strand) [rimF promoter probe]	no binding
GTCGGCCCGGGGCGTTTCATTCTCCGGATTTTCGCCACCTCGCTCGATTG (double strand) [rimR1 promoter probe]	no binding
TCTTTTGTGATCAGGATGGGGGCGCGCGGCGGCCCGGGGCCGGTGGACCA (double strand) [rimD promoter probe]	no binding
